Source: PubChem BioAssay AID652243 (Drosophila RNAi Screening Center, 2013)
Aim: 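Fly genes required for human androgen receptor driven transcription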 (primary screen). Cell system: Drosophila S2R+ cells. Reagent: long dsRNA against Drosophila genes. Duration: 72 h (48 h, then 24 h hormone). Treatment: synthetic androgen R1881 at 10 nM for 24 h. Detection: 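Per-well raw luminescence of the androgen-driven firefly reporter and of the Renilla control, two replicates each, without normalisation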. Scale: firefly reporter light: higher = more light from androgen-responsive reporter; Renilla control light: higher = more constitutive control signal (cell number, transfection). Call rule: 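Across duplicate plates, a knock-down whose log firefly/Renilla ratio shifted a set fold down or up from the GFP/LacZ control mean was a hit; the downward cut appears as both 1.5 and 3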. Meaning of the calls: active = hit: reporter lowered or raised; inactive = no hit.
In all, the deposit lists about 24,000 reagents; below is an unselected part of those with a known target gene and a result. Of all reagents, 246 (1%) are marked active. 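Plates not normalised; calls are printed but the firefly/Renilla ratio behind them is not deposited; fold cut for lowering reported inconsistently.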 Raw values are not corrected between plates. Unmarked entries are inactive. The numbers tell different reagents against one gene apart. Reagent sequences are not shown. Not given: the amount of reagent.

| gene | reagent no. | firefly reporter light, replicate 1 | firefly reporter light, replicate 2 | Renilla control light, replicate 1 | Renilla control light, replicate 2 |
| --- | --- | --- | --- | --- | --- |
| TwdlY (TweedleY) | 1 | 7.86e5 | 8.48e5 | 2.08e6 | 2.01e6 |
| hop (hopscotch) | 1 | 4.95e5 | 4.38e5 | 2.65e6 | 2.77e6 |
| hop (hopscotch) | 2 | 6.08e5 | 6.56e5 | 1.20e5 | 1.49e5 |
| hop (hopscotch) | 3 | 2.66e5 | 2.51e5 | 5.49e5 | 2.36e5 |
| CG12061 | 1 | 2.31e5 | 2.59e5 | 8.18e5 | 7.99e5 |
| CG4325 | 1 | 9.72e5 | 8.73e5 | 1.44e6 | 8.86e5 |
| CG4325 | 2 | 2.28e5 | 2.06e5 | 6.44e5 | 6.52e5 |
| Osi19 (Osiris 19) | 1 | 47541 | 63538 | 1.37e6 | 1.13e6 |
| CG32071 | 1 | 5.92e5 | 5.03e5 | 1.71e6 | 1.33e6 |
| CG32071 | 2 | 8.42e5 | 8.87e5 | 7.34e5 | 7.57e5 |
| sosie | 1 | 2.85e5 | 2.32e5 | 3.03e6 | 2.84e6 |
| sosie | 2 | 6.72e5 | 6.30e5 | 2.40e6 | 2.16e6 |
| sosie | 3 | 5.74e5 | 3.98e5 | 7.21e5 | 3.14e5 |
| Or71a (Odorant receptor 71a) | 1 | 97901 | 1.05e5 | 1.47e6 | 1.28e6 |
| Arl6 (ADP ribosylation factor-like 6) | 1 | 1.62e5 | 1.44e5 | 1.83e6 | 1.94e6 |
| Rpt6 (Regulatory particle triple-A ATPase 6) | 1 | 88981 | 1.06e5 | 7.61e5 | 8.79e5 |
| Rpt6 (Regulatory particle triple-A ATPase 6) | 2 | 7.06e5 | 5.39e5 | 1.44e6 | 1.13e6 |
| CG12766 | 1 | 2.49e5 | 2.65e5 | 2.42e6 | 2.47e6 |
| CG12069 | 1 | 1.46e5 | 1.97e5 | 2.06e6 | 2.33e6 |
| CG12069 | 2 | 2.91e5 | 3.31e5 | 5.72e5 | 6.27e5 |
| shg (shotgun) | 1 | 7.91e5 | 6.34e5 | 2.27e6 | 1.93e6 |
| shg (shotgun) | 2 | 4.53e5 | 2.37e5 | 7.70e5 | 7.28e5 |
| shg (shotgun) | 3 | 7.42e5 | 8.80e5 | 1.36e6 | 1.29e6 |
| w-cup (world cup) | 1 | 2.54e5 | 2.17e5 | 1.79e6 | 1.29e6 |

Just “Renilla control light, replicate 2” (2 entries from above):
Rpt6 (Regulatory particle triple-A ATPase 6) #2: 1.13e6
CG12766: 2.47e6
